This assay concerns the target G9a, endogenous in iPSCs (human (endogenous in iPSCs)) (UniProt Q96KQ7). Put plainly: co-IP + affinity purification with mass spectrometry; rabbit anti-G9a on Dynabeads Protein A; whole cell extracts (100 µg) of control and patients' iPSCs, 45 min at 4 °C; washes with 200 mM NaCl, 1.5 mM MgCl2, 20 mM EDTA; eluate read by western blot (G9a, GLP) and LC-MS/MS; anti-PFAS IgG as negative control. For orientation: A western blot detects proteins with antibodies after separation by electrophoresis.

Protein sequences, listed by entry. Tags and fused reporters are not part of them.
UniProt Q96KQ7: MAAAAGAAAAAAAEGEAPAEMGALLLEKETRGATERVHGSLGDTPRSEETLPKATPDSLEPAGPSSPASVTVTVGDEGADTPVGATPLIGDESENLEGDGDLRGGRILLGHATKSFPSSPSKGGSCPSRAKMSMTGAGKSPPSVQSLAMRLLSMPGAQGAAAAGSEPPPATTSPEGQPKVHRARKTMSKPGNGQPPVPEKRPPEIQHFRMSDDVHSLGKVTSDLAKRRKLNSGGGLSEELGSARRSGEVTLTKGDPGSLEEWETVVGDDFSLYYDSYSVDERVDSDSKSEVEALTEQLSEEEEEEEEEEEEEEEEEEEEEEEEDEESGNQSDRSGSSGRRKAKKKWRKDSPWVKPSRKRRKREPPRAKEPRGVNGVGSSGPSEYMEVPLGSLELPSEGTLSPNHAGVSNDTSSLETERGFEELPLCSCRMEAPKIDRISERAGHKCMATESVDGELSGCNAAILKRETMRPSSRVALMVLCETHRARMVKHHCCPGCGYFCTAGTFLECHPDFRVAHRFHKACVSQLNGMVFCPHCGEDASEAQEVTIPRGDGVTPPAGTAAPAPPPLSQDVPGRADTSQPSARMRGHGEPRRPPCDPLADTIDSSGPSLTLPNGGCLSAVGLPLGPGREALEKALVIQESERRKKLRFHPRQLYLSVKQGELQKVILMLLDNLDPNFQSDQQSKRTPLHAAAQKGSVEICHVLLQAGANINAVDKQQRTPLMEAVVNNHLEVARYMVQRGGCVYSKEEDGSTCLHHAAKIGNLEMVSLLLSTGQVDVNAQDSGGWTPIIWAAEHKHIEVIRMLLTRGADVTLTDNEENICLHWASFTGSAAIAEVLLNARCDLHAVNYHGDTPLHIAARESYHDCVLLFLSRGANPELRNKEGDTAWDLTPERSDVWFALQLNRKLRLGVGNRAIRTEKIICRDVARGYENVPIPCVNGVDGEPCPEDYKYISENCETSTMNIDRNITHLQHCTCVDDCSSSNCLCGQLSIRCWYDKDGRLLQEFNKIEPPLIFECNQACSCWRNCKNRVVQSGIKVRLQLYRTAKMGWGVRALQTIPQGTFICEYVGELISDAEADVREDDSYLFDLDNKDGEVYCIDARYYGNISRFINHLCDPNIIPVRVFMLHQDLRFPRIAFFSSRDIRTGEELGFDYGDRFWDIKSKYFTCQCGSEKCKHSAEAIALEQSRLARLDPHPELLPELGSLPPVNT
UniProt Q96JM2: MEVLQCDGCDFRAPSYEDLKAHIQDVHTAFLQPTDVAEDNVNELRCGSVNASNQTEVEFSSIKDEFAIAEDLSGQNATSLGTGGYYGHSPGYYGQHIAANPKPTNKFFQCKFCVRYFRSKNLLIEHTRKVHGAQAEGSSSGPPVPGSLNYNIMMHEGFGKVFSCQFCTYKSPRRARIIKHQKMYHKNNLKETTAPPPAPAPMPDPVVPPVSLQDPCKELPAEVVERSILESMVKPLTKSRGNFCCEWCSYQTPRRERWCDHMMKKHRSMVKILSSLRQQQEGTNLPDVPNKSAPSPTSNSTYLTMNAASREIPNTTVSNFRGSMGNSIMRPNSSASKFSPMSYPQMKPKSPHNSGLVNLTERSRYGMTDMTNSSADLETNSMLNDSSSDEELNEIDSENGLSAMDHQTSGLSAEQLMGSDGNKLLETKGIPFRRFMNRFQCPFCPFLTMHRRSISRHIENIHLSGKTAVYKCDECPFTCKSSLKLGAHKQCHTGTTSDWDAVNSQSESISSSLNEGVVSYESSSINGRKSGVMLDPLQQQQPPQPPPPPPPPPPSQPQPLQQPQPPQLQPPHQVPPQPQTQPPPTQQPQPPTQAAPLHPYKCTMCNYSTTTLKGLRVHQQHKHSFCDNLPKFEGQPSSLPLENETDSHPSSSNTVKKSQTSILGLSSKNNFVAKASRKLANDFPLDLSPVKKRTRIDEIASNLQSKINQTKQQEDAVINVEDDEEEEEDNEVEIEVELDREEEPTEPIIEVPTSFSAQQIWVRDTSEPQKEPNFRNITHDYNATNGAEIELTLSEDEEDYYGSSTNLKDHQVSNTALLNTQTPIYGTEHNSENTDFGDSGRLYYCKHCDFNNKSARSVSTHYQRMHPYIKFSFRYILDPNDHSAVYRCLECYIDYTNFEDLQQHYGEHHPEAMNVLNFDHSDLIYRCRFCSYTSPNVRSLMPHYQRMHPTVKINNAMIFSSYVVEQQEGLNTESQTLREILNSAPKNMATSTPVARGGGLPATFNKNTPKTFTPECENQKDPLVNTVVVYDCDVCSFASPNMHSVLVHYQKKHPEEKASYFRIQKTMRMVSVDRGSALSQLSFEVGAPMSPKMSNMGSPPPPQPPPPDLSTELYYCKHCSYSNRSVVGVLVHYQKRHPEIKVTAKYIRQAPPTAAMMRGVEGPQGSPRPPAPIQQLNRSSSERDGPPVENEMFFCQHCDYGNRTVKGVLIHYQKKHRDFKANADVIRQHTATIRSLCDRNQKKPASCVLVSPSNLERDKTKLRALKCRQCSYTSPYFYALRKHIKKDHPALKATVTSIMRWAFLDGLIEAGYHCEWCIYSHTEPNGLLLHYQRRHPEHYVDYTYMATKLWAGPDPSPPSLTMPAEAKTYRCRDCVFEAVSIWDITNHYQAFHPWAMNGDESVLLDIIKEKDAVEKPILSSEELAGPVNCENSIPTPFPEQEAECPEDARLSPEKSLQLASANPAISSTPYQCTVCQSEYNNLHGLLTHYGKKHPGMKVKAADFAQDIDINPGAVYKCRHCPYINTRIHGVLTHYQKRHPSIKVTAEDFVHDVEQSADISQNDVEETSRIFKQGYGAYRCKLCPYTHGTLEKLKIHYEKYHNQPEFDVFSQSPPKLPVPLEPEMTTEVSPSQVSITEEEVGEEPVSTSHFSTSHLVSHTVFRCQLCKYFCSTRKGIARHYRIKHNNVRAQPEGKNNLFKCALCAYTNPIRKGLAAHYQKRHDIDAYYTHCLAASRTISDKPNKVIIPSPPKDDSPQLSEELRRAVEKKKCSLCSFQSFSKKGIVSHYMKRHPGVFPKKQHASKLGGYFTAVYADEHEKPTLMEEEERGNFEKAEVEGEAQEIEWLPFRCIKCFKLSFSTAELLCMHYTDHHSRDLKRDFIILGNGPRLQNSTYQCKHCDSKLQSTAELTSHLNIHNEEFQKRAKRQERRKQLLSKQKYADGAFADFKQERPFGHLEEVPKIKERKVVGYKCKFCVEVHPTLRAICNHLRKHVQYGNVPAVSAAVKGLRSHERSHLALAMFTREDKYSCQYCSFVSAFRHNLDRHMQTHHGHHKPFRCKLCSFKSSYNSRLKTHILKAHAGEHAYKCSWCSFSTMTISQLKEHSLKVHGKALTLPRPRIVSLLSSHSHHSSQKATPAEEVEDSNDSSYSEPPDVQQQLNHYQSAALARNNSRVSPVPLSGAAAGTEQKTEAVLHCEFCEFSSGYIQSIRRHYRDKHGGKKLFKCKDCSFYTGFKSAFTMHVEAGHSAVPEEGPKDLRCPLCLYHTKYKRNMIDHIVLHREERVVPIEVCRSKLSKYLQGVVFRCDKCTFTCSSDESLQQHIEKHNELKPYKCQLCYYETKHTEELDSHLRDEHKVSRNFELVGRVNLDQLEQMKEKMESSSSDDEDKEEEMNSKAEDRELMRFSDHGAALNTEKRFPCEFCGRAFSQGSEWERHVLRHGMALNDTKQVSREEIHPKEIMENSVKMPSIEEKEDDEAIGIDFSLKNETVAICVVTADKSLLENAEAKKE
UniProt O95785: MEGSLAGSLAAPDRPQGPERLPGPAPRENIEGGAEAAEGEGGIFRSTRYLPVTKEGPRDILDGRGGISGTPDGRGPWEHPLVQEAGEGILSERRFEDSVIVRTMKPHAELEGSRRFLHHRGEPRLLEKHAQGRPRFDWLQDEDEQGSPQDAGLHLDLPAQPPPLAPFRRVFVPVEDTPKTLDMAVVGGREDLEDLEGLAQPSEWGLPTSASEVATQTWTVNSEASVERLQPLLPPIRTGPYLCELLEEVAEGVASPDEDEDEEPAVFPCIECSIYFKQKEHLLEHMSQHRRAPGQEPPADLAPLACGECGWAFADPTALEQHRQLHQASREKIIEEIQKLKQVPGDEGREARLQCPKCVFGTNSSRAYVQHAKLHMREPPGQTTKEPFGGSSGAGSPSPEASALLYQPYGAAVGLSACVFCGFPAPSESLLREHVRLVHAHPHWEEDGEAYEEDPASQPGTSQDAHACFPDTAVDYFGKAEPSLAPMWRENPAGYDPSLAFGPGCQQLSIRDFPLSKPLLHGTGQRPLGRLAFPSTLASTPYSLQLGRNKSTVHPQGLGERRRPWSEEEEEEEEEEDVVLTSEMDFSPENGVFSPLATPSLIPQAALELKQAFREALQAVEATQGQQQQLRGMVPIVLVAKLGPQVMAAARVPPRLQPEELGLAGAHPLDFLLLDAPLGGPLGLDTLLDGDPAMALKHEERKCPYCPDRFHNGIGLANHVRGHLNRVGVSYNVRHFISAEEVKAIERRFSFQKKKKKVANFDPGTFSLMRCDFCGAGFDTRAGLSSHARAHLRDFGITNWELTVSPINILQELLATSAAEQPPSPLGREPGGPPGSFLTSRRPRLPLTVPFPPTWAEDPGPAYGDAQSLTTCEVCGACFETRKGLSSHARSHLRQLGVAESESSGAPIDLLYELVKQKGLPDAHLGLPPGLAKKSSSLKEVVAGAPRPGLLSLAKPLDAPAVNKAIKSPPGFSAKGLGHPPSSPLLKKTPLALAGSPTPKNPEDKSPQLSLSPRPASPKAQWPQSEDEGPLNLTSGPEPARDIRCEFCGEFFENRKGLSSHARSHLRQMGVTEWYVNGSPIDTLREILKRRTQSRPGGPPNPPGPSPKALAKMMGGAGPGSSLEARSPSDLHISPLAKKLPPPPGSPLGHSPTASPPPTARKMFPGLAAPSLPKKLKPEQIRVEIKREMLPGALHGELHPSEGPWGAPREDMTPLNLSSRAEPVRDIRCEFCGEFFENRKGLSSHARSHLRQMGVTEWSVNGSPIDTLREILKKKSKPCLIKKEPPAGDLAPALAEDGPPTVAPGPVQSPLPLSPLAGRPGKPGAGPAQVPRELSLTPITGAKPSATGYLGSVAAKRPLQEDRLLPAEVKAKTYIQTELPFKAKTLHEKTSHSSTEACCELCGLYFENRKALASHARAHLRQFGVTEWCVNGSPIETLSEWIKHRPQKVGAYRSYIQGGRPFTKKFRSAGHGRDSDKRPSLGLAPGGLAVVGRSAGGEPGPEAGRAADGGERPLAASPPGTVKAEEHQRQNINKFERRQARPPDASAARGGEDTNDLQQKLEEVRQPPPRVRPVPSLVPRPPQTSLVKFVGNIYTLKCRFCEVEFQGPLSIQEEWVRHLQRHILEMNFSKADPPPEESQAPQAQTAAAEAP

No constants are given. Whether binding was seen depends on the method and setting. Binding seen in cells or lysates may run through a third protein. Here binding means that the protein was enriched with, or labelled near, the bait; the list need not be complete.

Consider “ZNF462, endogenous in iPSCs (from UniProt Q96JM2 1-2506)”, for which the binding entry is “binds”.

On to “WIZ, endogenous in iPSCs (from UniProt O95785 1-1651)”, for which the binding result is on record as “binds”.
